Data taken from US20200362303A1, “MAINTENANCE-AND-AMPLIFICATION METHOD AND DIFFERENTIATION INDUCTION METHOD FOR PRIMORDIAL GERM CELLS/PRIMORDIAL GERM CELL-LIKE CELLS” (KYOTO UNIVERSITY, priority 2017, published 2020).
Some of these results come from one statement about several compounds together.

Test system: BV (+) d4 PGCLCs
Test: Compound library screening for PGCLC proliferation (BV fluorescence by cell analyzer)
Type: cell-based, mouse
Settings: 10 μM; 7 days of culture; top 25 hit compounds
Experimental: d4 PGCLC was seeded by FACS on m220-5 feeders in 96-well plates and BV fluorescence was monitored by cell analyzer (Cellavista; SynenTec). Fluorescence photograph for BV was taken by Cellavista cell analyzer with the following settings: 10× objectives; exposure time: 140 μsec; gain: 4×; binning: 4×4; excitation: 500/24 nm; emission: 542/27 nm. BV fluorescence was detected using the following algorithm/attribute parameters: sensitivity: 10; region merging: 200; min. granule intensity: 50; well edge distance: 200; contrast: 1; size: 3,000; intensity: 255; roughness: 500; granularity: 100; granule intensity: 255; granule count: 10,000; longishness: 100; compactness: 1. The value of “cell nucleus” was used for the detection of BV fluorescence.
The compound library was screened at concentrations of 10 μM and 1 μM. […] 200 BV (+) d4 PGCLCs induced from BDF1-2 ESC were seeded in the wells of a 96-well plate, and BV fluorescence was measured on the Cellavista cell analyzer on day 1 of culture (c1), c3, c5 and c7. The value of “cell nucleus” was used for the detection of BV fluorescence. […] For each compound, the fold difference in BV fluorescence between c1 and c7 was calculated for each compound and compounds with a fold difference value exceeding 3SD of the mean of the negative control were identified as those that potentiate PGCLC proliferation.

COc1cc(C)c(/C=C/C(C)=C/C=C/C(C)=C/C(=O)O)c(C)c1C [Acitretin]
fold difference in BV fluorescence between day 1 and day 7 of culture versus mean of negative control: greater than 3 SD
